{
  "source": "PubChem BioAssay AID2685",
  "about": "(National Center for Advancing Translational Sciences (NCATS), 2010)",
  "note": "Screen size: about 320,000 compounds; about 2,100 (0.66%) were called active. Inconclusive results, whose numbers are uncertain, are shown with a selection of clear calls. The call rests on the fitted dose curve; in most records, active means well fitted inhibition curve with a large enough effect in the signal ratio, with a control signal flat (not every such curve was filed as active); inconclusive means small, poorly fitted or top-dose-only effect, or effect the other way, or a change in a side signal; inactive means flat fitted curve, though single readings scatter; the % refers to the signal ratio. Potencies beside an inconclusive call are fits to weak or partial responses and may not hold up. On the % scale 0 is the no-effect control and ±100 the full control effect; potency means the concentration at half of the fitted maximal effect.",
  "data": [
    {"assay": "qHTS Assay for Lipid Storage Modulators in Drosophila S3 Cells", "conditions": "BODIPY lipid droplet fluorescence, 18-24 h, cells fed with added oleic acid; lipid storage change, negative = inhibition: at 46.1 µM (top of the series) unless noted", "in_short": "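Drosophila S3 cells got compounds at several concentrations plus oleic acid (400 uM solution). Laser-scanning cytometry with 488 nm excitation read lipid droplets at 500-530 nm and cells at 575-640 nm. Percent activity was relative to 20 uM Triacsin C.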", "values": [
      {"smiles": "O=c1oc2ccccc2cc1-c1cn(-c2ccccc2)c(=S)[nH]1", "lipid storage change, negative = inhibition": "inconclusive: 28.4%"},
      {"smiles": "Cc1nnc(N2CCC(C(=O)N3CCCCC3)CC2)c2nn(-c3ccc(Cl)cc3)c(C)c12", "Potency": "inconclusive: 29.1 µM [cytotoxic, single point]"},
      {"smiles": "COc1cccc(-c2cc(C(=O)N3CCN(S(=O)(=O)c4ccc(Br)cc4)CC3)[nH]n2)c1", "Potency": "inconclusive: 1.64 µM [falling, partial curve, poor fit]"},
      {"smiles": "COc1cc(OC)cc(C(=O)Nc2ncc3c(n2)CC(C)(C)CC3=O)c1", "Potency": "inconclusive: 0.13 µM [falling, full curve, poor fit]"},
      {"smiles": "O=C(O)c1ccc(-n2cccn2)c([N+](=O)[O-])c1", "lipid storage change, negative = inhibition": "inconclusive: -60.7%"},
      {"smiles": "COc1ccc2nc(NC(=O)CSCC(=O)Nc3cc(C)on3)sc2c1", "lipid storage change, negative = inhibition": "inconclusive"},
      {"smiles": "CC(C)C(NC(=O)/C=C/c1cccc([N+](=O)[O-])c1)C(C)C", "lipid storage change, negative = inhibition": "inconclusive: -8.88%"},
      {"smiles": "O=C1CN(C(=O)c2cccc(Br)c2)c2ccccc2N1", "lipid storage change, negative = inhibition": "inconclusive: 12%"},
      {"smiles": "CCCC(=O)OC1CC(C)N(C(=O)c2ccccc2)c2ccc(C)cc21", "note": "(stereo unspecified)", "lipid storage change, negative = inhibition": "inconclusive: -16.6%"},
      {"smiles": "COc1ccc(OC)c(NC(=S)NCCSc2ccc(C)cc2)c1", "Potency": "inconclusive: 20.6 µM [falling, single point]"},
      {"smiles": "COc1ccc(CC(=O)NC2CCS(=O)(=O)C2)cc1", "note": "(stereo unspecified)", "lipid storage change, negative = inhibition": "inconclusive: 2.87%"},
      {"smiles": "O=C(N/N=C/c1cccnc1)c1cccs1", "lipid storage change, negative = inhibition": "inconclusive: 0.0509%"},
      {"smiles": "Nn1cnnc1N/N=C/c1ccc(F)cc1", "Potency": "inconclusive: 29.1 µM [falling, single point]"},
      {"smiles": "C=CCn1c(SCC(C)=O)nc2sc3c(c2c1=O)CCC3", "lipid storage change, negative = inhibition": "inconclusive: -55.3%"},
      {"smiles": "C#CCOC(=O)Nc1ccc(=O)n(Cc2c(Cl)cccc2Cl)c1", "lipid storage change, negative = inhibition": "inconclusive: 4.61%"},
      {"smiles": "CC1CCCCN1CCNC(=O)CC1Oc2ccccc2NC1=O", "note": "(stereo unspecified)", "Potency": "inconclusive: 0.291 µM [activator, partial curve, poor fit]"},
      {"smiles": "COc1ccc([C@@H]2[C@@H]3C(=O)N(C(C)(C)C)C(=O)[C@@H]3[C@]3(C)C(=O)N(c4ccc(C(F)(F)F)cc4)C(=O)N23)cc1", "lipid storage change, negative = inhibition": "inactive"},
      {"smiles": "COc1ccc(/C=C/C(=O)Nc2ccc(S(=O)(=O)Nc3onc(C)c3C)cc2)cc1OC", "Potency": "inconclusive: 11.2 µM [activator, partial curve]"},
      {"smiles": "COC(=O)CNC(=O)COC(=O)C(Cc1ccccc1)NC(=O)c1ccco1", "note": "(stereo unspecified)", "lipid storage change, negative = inhibition": "inconclusive: 74%"},
      {"smiles": "CCOc1ccc(NC(=O)CN(C)c2ccc(S(=O)(=O)N(C(C)C)C(C)C)cn2)cc1OCC", "Potency": "inconclusive: 4.11 µM [activator, single point]"},
      {"smiles": "Cc1ccc(NC2=NCC(=O)N2Cc2cccs2)cc1C", "Potency": "inconclusive: 5.17 µM [falling, single point]"},
      {"smiles": "Cn1nnnc1SCc1nc2ccccc2s1", "lipid storage change, negative = inhibition": "inconclusive: -19%"},
      {"smiles": "COc1cc(CCC(=O)OCC(=O)NCc2ccc(Cl)cc2)cc(OC)c1OC", "lipid storage change, negative = inhibition": "inconclusive: 107%"},
      {"smiles": "Cc1ccc(/C=C2\\CCCC3=C2NC(=S)NC3c2ccc(C)cc2)cc1", "note": "(stereo unspecified)", "Potency": "inconclusive: 1.64 µM [falling, partial curve, poor fit]"},
      {"smiles": "Cc1ccc(C)c(OCCC(=O)OCC(=O)NC(=O)NCc2ccccc2)c1", "lipid storage change, negative = inhibition": "inconclusive"},
      {"smiles": "COc1ccc(NC(=S)N2CCC(C(=O)c3ccc(OC)cc3)CC2)cc1", "lipid storage change, negative = inhibition": "inactive"},
      {"smiles": "Cc1c(C(=O)NCCCN2CCCC2=O)oc2ccccc12", "lipid storage change, negative = inhibition": "inconclusive: -30.2%"},
      {"smiles": "CC(C)N1C(=O)C(=O)N(CC(=O)N(C)c2ccccc2)C1=O", "lipid storage change, negative = inhibition": "inconclusive: 6.95%"},
      {"smiles": "Cc1cc(C)c(-c2cc(NC(=O)COC(=O)c3ccc(CO)cc3)n(-c3ccccc3)n2)cc1C", "Potency": "inconclusive: 1.3 µM [activator, full curve, poor fit]"},
      {"smiles": "O=C(O)/C=C/c1cnn(-c2ccccc2)c1", "lipid storage change, negative = inhibition": "inconclusive: -15.6% [at 9.22 µM]"},
      {"smiles": "CCOCCCNC(=O)C(c1ccc(Cl)cc1)N(Cc1cccs1)C(=O)c1ccccn1", "note": "(stereo unspecified)", "lipid storage change, negative = inhibition": "inconclusive: -15.7%"},
      {"smiles": "Cc1ccc(-c2nnc3ccc(SCC(=O)N4CCc5ccccc54)nn23)cc1", "lipid storage change, negative = inhibition": "inconclusive: 19.5%"},
      {"smiles": "Cc1ccc(CNC(=O)CC(C)S(=O)(=O)c2ccc3c(c2)NC(=O)C(C)S3)cc1", "note": "(stereo unspecified)", "lipid storage change, negative = inhibition": "inconclusive: -23.1%"},
      {"smiles": "O=C(Cc1ccccc1)Nc1ccccc1C(=O)NCC1CCCO1", "note": "(stereo unspecified)", "lipid storage change, negative = inhibition": "inconclusive: 42.9%"},
      {"smiles": "CCn1c(=O)c([N+](=O)[O-])c(NCCc2ccc(OC)c(OC)c2)c2ccccc21", "lipid storage change, negative = inhibition": "inconclusive: 19.6%"},
      {"smiles": "COc1ccc(NC(=O)Nc2ccccc2C(N)=O)cc1OC", "lipid storage change, negative = inhibition": "inconclusive: 9.81%"},
      {"smiles": "O=C1/C(=C\\c2ccccc2Cl)SC(=S)N1CCC(=O)N1CCCc2ccccc21", "lipid storage change, negative = inhibition": "inconclusive: 23.6%"},
      {"smiles": "CCC(C(=O)Nc1ccncc1)c1ccccc1", "note": "(stereo unspecified)", "Potency": "inconclusive: 18.4 µM [falling, single point]"},
      {"smiles": "COc1ccc(NC(=O)C2C3C=CC4(O3)C2C(=O)N(CCN2CCCCC2)C4C(=O)NC2CCCCC2)cc1", "note": "(stereo unspecified)", "Potency": "inconclusive: 29.1 µM [activator, single point]"},
      {"smiles": "Cc1ccccc1S(=O)(=O)Cc1ccc(C(=O)NC2CCC(C)CC2)o1", "note": "(stereo unspecified)", "Potency": "active: 18.4 µM"},
      {"smiles": "Cc1ccc2nc(-c3ccc(SCC(=O)Nc4nc(C)cs4)nc3)[nH]c2c1", "Potency": "inconclusive: 20.6 µM [cytotoxic, partial curve]"},
      {"smiles": "N#Cc1cccc(C(=O)OCC(=O)NC(=O)NC2CCCCC2)c1", "lipid storage change, negative = inhibition": "inconclusive"},
      {"smiles": "O=C(COC(=O)c1nc(Cl)c(Cl)c(Cl)c1Cl)NCc1ccccc1", "lipid storage change, negative = inhibition": "inactive"},
      {"smiles": "Cc1cccc(NC(=O)CC2NCCNC2=O)c1", "note": "(stereo unspecified)", "lipid storage change, negative = inhibition": "inconclusive: 44.2%"},
      {"smiles": "CCc1ccc(-n2c(C)cc(/C=N/NC(=O)c3ccncc3)c2C)cc1", "lipid storage change, negative = inhibition": "inconclusive: -8.56%"},
      {"smiles": "COCCNC(=O)C(c1ccc(C)o1)N(CC1CCCO1)C(=O)Cn1nnc2ccccc21", "note": "(stereo unspecified)", "lipid storage change, negative = inhibition": "inconclusive: -47%"},
      {"smiles": "CN(c1ccccc1)S(=O)(=O)c1cccc(NC(=O)c2cc3ccccc3oc2=O)c1", "lipid storage change, negative = inhibition": "inconclusive: -0.805%"},
      {"smiles": "O=C(O)/C=C/c1ccc(S(=O)(=O)NCc2ccco2)cc1", "lipid storage change, negative = inhibition": "inconclusive: 6%"},
      {"smiles": "O=C(NNC(=S)NC1CC2C=CC1C2)c1cccnc1", "note": "(stereo unspecified)", "lipid storage change, negative = inhibition": "inactive"},
      {"smiles": "O=C(N/N=C/c1ccc2c(c1)OCO2)c1cc(-c2ccccc2Cl)nc2ccccc12", "Potency": "inconclusive: 0.58 µM [activator, partial curve]"},
      {"smiles": "CCOc1ccc(C(=O)c2ccc(OCC)c(N)c2)cc1N", "lipid storage change, negative = inhibition": "inconclusive: 42.5%"},
      {"smiles": "Cc1ccc(S(=O)(=O)CC(=O)Nc2nnc(C(C)C)s2)cc1", "Potency": "inconclusive: 6.51 µM [activator, single point]"},
      {"smiles": "O=C(Cn1cnc([N+](=O)[O-])c1)c1ccc(Cl)cc1", "lipid storage change, negative = inhibition": "inconclusive: -16.2%"},
      {"smiles": "CN(C(=O)COC(=O)c1ccc(Br)c([N+](=O)[O-])c1)c1c(N)n(Cc2ccccc2)c(=O)[nH]c1=O", "lipid storage change, negative = inhibition": "inconclusive: -23.5%"},
      {"smiles": "CCCNS(=O)(=O)c1ccc(-n2cnnn2)c(OC)c1", "Potency": "inconclusive: 6.51 µM [falling, full curve, poor fit]"},
      {"smiles": "COCCCn1c(SCC(=O)OC2CCCCC2)nnc1-c1cccs1", "Potency": "inconclusive: 0.0065 µM [falling, full curve, poor fit]"},
      {"smiles": "CCOc1ccc(NC(=O)CCC(=O)c2ccc(Br)cc2)cc1", "lipid storage change, negative = inhibition": "inconclusive: 25.2%"},
      {"smiles": "Cc1nc(N)sc1N=Nc1ccc(Br)cc1", "Potency": "inconclusive: 0.082 µM [activator, full curve, poor fit]"},
      {"smiles": "O=C(Nc1ccccc1C(F)(F)F)c1cc(-c2ccco2)on1", "lipid storage change, negative = inhibition": "inconclusive: 8.07%"},
      {"smiles": "CCn1ccc(-c2ccccc2)c(C#N)c1=O", "lipid storage change, negative = inhibition": "inconclusive: -18% [at 9.22 µM]"},
      {"smiles": "CCn1cc(C(=O)N2CCCC(C(=O)c3ccc4ccccc4c3)C2)cn1", "note": "(stereo unspecified)", "lipid storage change, negative = inhibition": "inconclusive: -35.2%"},
      {"smiles": "O=C1CC(c2ccc(Cl)c(Cl)c2)CC(O)=C1C=NCCN1CCNCC1", "note": "(stereo unspecified)", "lipid storage change, negative = inhibition": "inconclusive: 44.9%"},
      {"smiles": "Cc1ccc(S(=O)(=O)NC(Cc2ccc(Cl)cc2)C(=O)O)cc1", "note": "(stereo unspecified)", "lipid storage change, negative = inhibition": "inconclusive: 17.8%"},
      {"smiles": "Cc1nc2cc(C(F)(F)F)ccc2n1C", "lipid storage change, negative = inhibition": "inconclusive: 2.93%"},
      {"smiles": "COc1cc(CC(=O)OCC(=O)NC2CCCCC2C)cc(OC)c1OC", "note": "(stereo unspecified)", "lipid storage change, negative = inhibition": "inactive"},
      {"smiles": "CCC1CN(C(=O)NCc2ccc(C)cc2)c2ccccc2O1", "note": "(stereo unspecified)", "lipid storage change, negative = inhibition": "inconclusive: 41.2%"},
      {"smiles": "Cc1ccccc1N(C(=O)c1snc(C(N)=O)c1N)C(C)C(=O)NC1CCCCC1", "note": "(stereo unspecified)", "Potency": "inconclusive: 0.13 µM [falling, full curve, poor fit]"},
      {"smiles": "Cc1nc(SCC(=O)NC(=O)NC(C)C)nc(C)c1C", "lipid storage change, negative = inhibition": "inconclusive: 19.1%"},
      {"smiles": "COCCN(CC(=O)Nc1cccc(C)c1)S(=O)(=O)c1ccc(S(=O)(=O)N2CCCC2)cc1", "Potency": "inconclusive: 6.51 µM [activator, single point]"},
      {"smiles": "CCC(C)(C)NC(=O)C(c1ccccc1F)N(Cc1ccco1)C(=O)c1csnn1", "note": "(stereo unspecified)", "Potency": "inconclusive: 9.2 µM [falling, partial curve]"},
      {"smiles": "COc1ccc(/C=C2\\CCCC3C2=NN(C(=O)CSc2n[nH]c(N)n2)C3c2ccc(OC)cc2)cc1", "note": "(stereo unspecified)", "lipid storage change, negative = inhibition": "inconclusive: -39%"},
      {"smiles": "CCOC(=O)c1c(NC(=S)Nc2ccc(Cl)cc2)sc(C)c1C", "Potency": "inconclusive: 0.206 µM [activator, full curve, poor fit]"},
      {"smiles": "COc1ccc(C(=O)Nc2ccc(N3CCN(C(=O)c4cccs4)CC3)cc2)cc1Br", "Potency": "inconclusive: 0.731 µM [activator, full curve]"},
      {"smiles": "Cc1nc2ccc(S(=O)(=O)N3CCCCC3)cc2s1", "lipid storage change, negative = inhibition": "inconclusive: 10.7%"},
      {"smiles": "CCN(CC)CCn1c2ccc(F)cc2c2nc(C)sc21", "Potency": "inconclusive: 29.1 µM [activator, single point]"},
      {"smiles": "Cc1ccccc1C(=O)c1c[nH]c(C(N)=O)c1", "lipid storage change, negative = inhibition": "inconclusive: -10.2%"}
    ]}
  ]
}
